Measured values from the supplement of paper PMC10735217.
This is one part of the list. This data set is noisy: repeats of one test often differ as much as different tests do.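 The human kidney-derived cells carry a stably integrated construct of eight TEAD-binding elements driving luciferase, read by luminescence in a drug-repurposing library screen. A compound counts as a hit when its signal is more than five robust Z scores above the plate mean.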

Tested on: HEK293A TEAD-LUC reporter
Assay: TEAD-luciferase reporter activity (YAP activation), robust Z score vs plate; higher = stronger YAP/TEAD activation
Conditions: 24 h

Row | Compound | TEAD-luciferase reporter activity (compound concentration: 200 nM) | TEAD-luciferase reporter activity (compound concentration: 2 uM) | TEAD-luciferase reporter activity (compound concentration: 10 uM)
1 | CC1(C)CC(Oc2ccc(-c3ccc(-c4cn[nH]c4)cc3O)nn2)CC(C)(C)N1 | inactive: -0.17 | inactive: -1.05 | inactive: -1.25
2 | C=C[C@]1(C)C[C@@H](OC(=O)NC(=O)C23CCN(CC2)CC3)[C@]2(C)C(C)CC[C@]3(CCC(=O)C32)[C@@H](C)[C@@H]1O (some centres not stated) | inactive: 2.03 | inactive: -0.571 | inactive: -1.76
3 | O[C@@H](c1cc(C(F)(F)F)nc2c(C(F)(F)F)cccc12)[C@H]1CCCCN1 | inactive: 1.9 |  | inactive: 0.0147
4 | O[C@@H](c1cc(C(F)(F)F)nc2c(C(F)(F)F)cccc12)[C@H]1CCCCN1 [(+)-mefloquine] |  | inactive: -0.0587 | 
5 | Cc1ccc(S(=O)(=O)NC(=O)NN2CC3CCCC3C2)cc1 (configuration not stated) [gliclazide] | inactive: -0.646 | inactive: -1.35 | inactive: 0.494
6 | N=C(N)c1ccc(N2C[C@@H](CN3CCN(CC(=O)O)CC3)OC2=O)cc1 | inactive: -0.315 | inactive: -2.08 | inactive: 1.56
7 | CC(=O)S[C@@H]1CC2=CC(=O)CC[C@]2(C)[C@H]2CC[C@@]3(C)[C@@H](CC[C@@]34CCC(=O)O4)[C@H]12 [Spironolactone] | inactive: -1.33 |  | inactive: 2.93
8 | CC(=O)S[C@@H]1CC2=CC(=O)CC[C@]2(C)[C@H]2CC[C@@]3(C)[C@@H](CC[C@@]34CCC(=O)O4)[C@H]12 [spironolactone] |  | inactive: 0.223 | 
9 | CCN1CCN(c2cc3c(cc2F)c(=O)c(C(=O)O)cn3C2CC2)CC1 [Enrofloxacin] |  | inactive: -0.739 | 
10 | CCN1CCN(c2cc3c(cc2F)c(=O)c(C(=O)O)cn3C2CC2)CC1 | inactive: -1.42 |  | inactive: -1.13
11 | Oc1cccc(O)c1 [Resorcinol] |  | inactive: -0.538 | 
12 | Oc1cccc(O)c1 | inactive: -0.653 | inactive: -0.59 | inactive: -0.419
13 | CCc1ccc(C(=O)COc2ccc(Cc3sc(O)nc3O)cc2)nc1 | inactive: -0.171 | inactive: -1.08 | inactive: 1.19
14 | Cc1nc(-c2ccc(C(F)(F)F)cc2)sc1C(=O)NCc1ccc(OC(C)(C)C(=O)O)cc1 | inactive: -2.59 | inactive: -1.09 | inactive: 2.94
15 | CC(C)(CO)[C@@H](O)C(=O)NCCCO | inactive: -0.772 |  | inactive: -1.05
16 | CC(C)(CO)[C@@H](O)C(=O)NCCCO [dexpanthenol] |  | inactive: 0.944 | 
17 | CC(C)N1CC(O)C2=C/C(=N/NC(N)=O)C(=O)C=C21 (configuration not stated) [iprazochrome] | inactive: -1.25 | inactive: 0.542 | inactive: 3.29

A portion from the list above, as a working copy:
Row | Compound | TEAD-luciferase reporter activity (compound concentration: 200 nM) | TEAD-luciferase reporter activity (compound concentration: 2 uM) | TEAD-luciferase reporter activity (compound concentration: 10 uM)
14 | Cc1nc(-c2ccc(C(F)(F)F)cc2)sc1C(=O)NCc1ccc(OC(C)(C)C(=O)O)cc1 | inactive: -2.59 | inactive: -1.09 | inactive: 2.94
15 | CC(C)(CO)[C@@H](O)C(=O)NCCCO | inactive: -0.772 |  | inactive: -1.05
16 | CC(C)(CO)[C@@H](O)C(=O)NCCCO [dexpanthenol] |  | inactive: 0.944 | 
17 | CC(C)N1CC(O)C2=C/C(=N/NC(N)=O)C(=O)C=C21 (configuration not stated) [iprazochrome] | inactive: -1.25 | inactive: 0.542 | inactive: 3.29
